US20160022599A1, “System and Method for Fabrication of Uniform Polymer Films Containing Nano and Micro Particles via Continuous Drying Process” (NEW JERSEY INSTITUTE OF TECHNOLOGY, priority 2013, published 2016)
For at least one compound, name, drawing or mass did not settle the structure.

Key:
Format in all cases: physicochemical
[1] = USP IV flow-through cell dissolution of films in SDS solution; conditions: SDS media; similarity and difference factors
[2] = Drug particle size (laser diffraction / DLS) in suspension and after re-dispersion from films
Protocol: An aliquot of the suspensions was dispersed in a 10 ml stabilizer solution and the particle size of the suspensions was measured using a Beckman Coulter LS13320 after milling. The resulting drug suspensions were mixed with a 10% w/w solution of HPMC E15LV and glycerin in a ratio of 1:1, drug suspension to polymer solution. This suspension was stirred for 3 hours with a dual-propeller mixer (McMaster, Catalog no. 3471K5, Los Angeles, Calif., USA). The particle size of the suspensions was measured after mixing with the polymer solution to check for particle growth.
The term “median size” here refers to the 50% vol. passing size of the cumulative volume distribution in LD and cumulant or z-average mean size in DLS. The griseofulvin particle size above 160 nm was measured in LD and the sizes below were measured using DLS. […] The particle size of un-milled drug suspension (in the presence of stabilizers), was also measured and referred as the 0th minute particle size.
GF nanosuspensions were produced via WSMM utilizing a Microcermill (NETZSCH, Fine particle technology LLC, Exton, Pa.) as per previously described methods and processing conditions. HPMC and SDS were chosen as stabilizers. […] At the end of milling, a sample was taken from the holding tank of the mill and dispersed into 15 mL HPMC-SDS stabilizers solution (using a pipette) and the particle size distribution of GF in the sample was then measured using laser diffraction in Coulter LS13320 (Beckman Coulter, Miami, Fla.).
The particle size distribution of GF was measured in suspensions after milling, after mixing with polymer solutions (S-S8) and from re-dispersed films using a laser diffraction technique. […] The size of SDIs (SSG, CCS and CP) was recorded for three cases: after incorporation into HPMC solution, before and after addition of GF nano-suspension and after film re-dispersion. […]
The particle size distribution of GF in the nano-suspensions was measured by laser diffraction in Coulter LS13320 (Beckman Coulter, Miami, Fla., USA). […]

[3] = USP IV flow-through cell dissolution of films in deionized water; conditions: DI water media
Protocol: Therefore, for the present disclosure, a flow-through cell dissolution apparatus (USP 4, Sotax, Switzerland) with cells of an internal diameter of 22.6 mm was employed. Circular film samples (having an area of 0.712 cm^2) were horizontally positioned in the cells with glass beads (1 mm in diameter) filling the top and bottom of each cell. […] The temperature was maintained at 37±0.5° C. and a flow rate of 16 mL/min was used. Dissolution experiments were carried out using two different media. […] For the second case, deionized (DI) water was used as the media. Six samples were used from each film (S-S8) and the average drug release was plotted as a function of time. To better understand the effect of SDIs on rate of drug release from HPMC films, two new formulations were prepared (formulation S7 and S8). In the first case a high molecular weight HPMC (E4M, Dow chemicals) was used to prepare films loaded with GF nanoparticles. In the second a higher concentration of HPMC ([…]) was used to prepare films containing GF nanoparticles (following the same procedure stated above). The percent drug loading and film thickness were kept same as formulations S-S8 and same dissolution testing protocols were followed. The release kinetics of GF from HPMC films was determined by finding the best fit for the release profiles. […]

Row | Structure (SMILES) | dissolution profiles of films with vs without SDS [1] | particle size d50, as-received [2] [microns] | median size of suspension after milling of drug alone ([2]; no stabilizers) [um] | particle size d50 after fluid energy milling ([2]; silica-coated, FEM 40 psi) [microns] | dissolution profiles of films with vs without SDS [3]
1 | CC(C)OC(=O)C(C)(C)Oc1ccc(C(=O)c2ccc(Cl)cc2)cc1 [FNB, fenofibrate] | statistically similar dissolution profiles with and without SDS | 10 | 10 | 2 | 
2 | CCCCC1C(=O)N(c2ccccc2)N(c2ccccc2)C1=O [Pb, phenylbutazone] |  |  |  |  | statistically similar dissolution profiles with and without SDS
